Measured values: publication PMC3854790, “CRIS—A Novel cAMP-Binding Protein Controlling Spermiogenesis and the Development of Flagellar Bending” (PLoS Genetics, 2013)

Target: T1, CRIS (cyclic nucleotide receptor involved in sperm function) (mouse (endogenous in sperm precursor cells)) (UniProt Q9D5U8)
T1 sequence: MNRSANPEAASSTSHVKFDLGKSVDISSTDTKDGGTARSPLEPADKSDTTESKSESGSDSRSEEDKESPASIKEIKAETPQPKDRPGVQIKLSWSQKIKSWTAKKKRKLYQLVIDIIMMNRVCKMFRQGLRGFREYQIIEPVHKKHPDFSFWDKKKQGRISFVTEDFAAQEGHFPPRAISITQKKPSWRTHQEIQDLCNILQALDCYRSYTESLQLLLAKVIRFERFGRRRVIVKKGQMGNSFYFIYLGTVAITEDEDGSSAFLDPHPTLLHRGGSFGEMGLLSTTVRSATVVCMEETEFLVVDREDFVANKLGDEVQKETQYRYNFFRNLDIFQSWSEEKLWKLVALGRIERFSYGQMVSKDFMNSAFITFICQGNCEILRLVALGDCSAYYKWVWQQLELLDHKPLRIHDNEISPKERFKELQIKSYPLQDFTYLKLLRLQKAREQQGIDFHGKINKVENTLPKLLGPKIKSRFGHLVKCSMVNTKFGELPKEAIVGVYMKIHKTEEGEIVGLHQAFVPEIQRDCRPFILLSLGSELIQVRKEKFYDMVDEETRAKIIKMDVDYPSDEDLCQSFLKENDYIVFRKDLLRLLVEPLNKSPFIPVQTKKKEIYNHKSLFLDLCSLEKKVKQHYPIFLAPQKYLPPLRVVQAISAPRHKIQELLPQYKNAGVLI
Test: affinity purification with mass spectrometry; co-immunoprecipitation of endogenous CRIS from sperm precursor cells of wild-type mice; 500 µg total lysate on a column of monoclonal antibody 4B2 or 4E4 covalently coupled to Protein G, overnight at 4°C, washed four times with lysis buffer (10 mM Tris/HCl pH 7.6, 140 mM NaCl, 1 mM EDTA, 1% Triton-X 100), eluted in SDS sample buffer, SDS-PAGE, LC-MS/MS; cells of Cris-deficient mice as negative control

- binding: binds
B1: Sorting nexin-4 (protein, UniProt Q91YJ2 1-450)
chain: MEQAPPDPEKLLQPGPLEPLGGPGAVLEAAVGEENEGTREDGSGVDTMTGNNFWLKKIEISVSEAEKRTGRNAVNMQETYTAYLIETRSVEHADGQSVLTDSLWRRYSEFELLRNYLLVYYPHVVVPPLPEKRAEFVWHKLSADNMDPDFVERRRVGLENFLLRVASHPVLCRDKIFYSFLTQEGNWKETVNETGFQLKADSRLKALNATFRVKNPDKRFTELRHYSDELQSVISHLLRVRARVADRLYGVYKVHGNYGRVFSEWSAIEKEMGDGLQSAGHHMDVYASSIDDILEDEEHYADQLKEYLFYAEALRAVCRKHELMQYDLETAAQDLAAKKQQCEELATGTVRTFSLKGMTTKLFGQETPEQREARIKVLEEQINEGEQQLKSKNLEGREFVKNAWADIERFKEQKNRDLKEALISYAVMQISMCKKGIQVWTNAKECFSKM

- binding: binds
B2: Mediator of RNA polymerase II transcription subunit 17 (protein, UniProt Q8VCD5 1-649)
chain: MSGVRAVRISIESACEKQVQEVGLDGTETYLQPLSMSQNLARLAQRIDFSQGSGSEEEEAAGPDGDAPDWGGAGADQDDEEGLVKFQPSLWPWDSVRNNLRSALTEMCVLYDVLSIVRDKKFMTLDPVSQDALPPKQSPQTLQLISKKKSLAGAAQILLKGAERLTKSVAENQENKLQRDFNSELLRLRQHWKLRKVGDKILGDLSYRSAGSLFPHHGTFEVIKNTDIDLDKKIPEDYCPLDVQIPSDLEGSAYIKVSIQKQAPDIGDLGTVNLFKRPLPKSKPGSPHWQTKLEAAQNVLLCKEIFAQLSREAVQIKSQIPHIVVKNQIISQPFPSLQLSISLCHSSDDKKSQKCAAEKPGQEDHLYVLEHNLHLLIREFHKQTLSSIVMPHPASAPFGHKRMRLSGPQAFDKNEINSIQSTEGLLEKIIKQAKHIFLRSRTAATIDSLASRIEDPQIQAHWSNINDVYESSVKVLITSQGYEQICKSIQLQLNIGVEQVRVVHRDGRVIMLSHQEQELQDFLLSQMSQHQVHAVQQLAKVMGWQVLSFSNHVGLGPIESIGNASAITVASPSGDYAISVRNGPESGSKIMVQFPRNQCKDLPKSDVLQDSKWSHLRGPFKEVQWNKMEGRNFVYKMELLMSALSPCLL

- binding: binds
B3: Protein KTI12 homolog (protein, UniProt Q9D1R2 1-351)
chain: MPLVVVCGLPSSGKSQRTEELRRALASEGRAVYVVDDASVLGAQDPTVYGDSAGEKALRAALRAAVERRLSRQDVVILDSVNYIKGFRYELYCLARAARTPLCLLYCVRPNWPSRELREASASENRDLAVSVSWRPRAETGGKSQAAGAVEEQRATSPVANGGVLAAVSKELDPEEILPSNPSAVMTPGSEKSAEPASCAFPPEVLESLALRFESPDSRNRWDRPLFTVVGLEEPLPLAEIRSALFENRAPPPHQSTQSQPLASGSFLHQLDQATSQVLTAVMEAQKSAVPGDFLKLPGTTEPLRFTRPLTLAELSRLRRQFISYTKMHPNNENLPQLANMFLQYLNQSLH

- binding: binds
B4: ATP-binding cassette sub-family F member 2 (protein, UniProt Q99LE6 1-628)
chain: MPSDLAKKKAAKKKEAAKARQRPRKGHEENGDAVTEPQVAEEKIEEANGRETTGDGEVDLLTKELEDFEMKKAAARAVTGVLASHPNSTDVHIINLSLTFHGQELLSDTKLELNSGRRYGLIGLNGIGKSMLLSAIGKREVPIPEHIDIYHLTREMPPSEKTPLQCVMEVDTERAMLEREAERLAHEDAECEKLMELYERLEELDADKAEMRASRILHGLGFTPAMQRKKLKDFSGGWRMRVALARALFIRPFMLLLDEPTNHLDLDACVWLEEELKTFKRILVLVSHSQDFLNGVCTNIIHMHNKKLKYYTGNYDQYVKTRLELEENQMKRFHWEQDQIAHMKNYIARFGHGSAKLARQAQSKEKTLQKMMASGLTERVVSDKTLSFYFPPCGKIPPPVIMVQNVSFKYTKDGPCIYNNLEFGIDLDTRVALVGPNGAGKSTLLKLLTGELLPTDGMIRKHSHVKIGRYHQHLQEQLDLDLSPLEYMMKCYPEIKEKEEMRKIIGRYGLTGKQQVSPIRNLSDGQKCRVCLAWLAWQNPHMLFLDEPTNHLDIETIDALADAINEFEGGMMLVSHDFRLIQQVAQEIWVCEKQTITKWPGDILAYKEHLKSKLVDEEPQLTKRTHNV

Results are given in words; binding and its absence hold for the method and conditions named. In cells and extracts the contact can be indirect. Here binding means that the protein was enriched with, or labelled near, the bait; the list need not be complete. Each block holds one binder with its values, some of them ahead of it.
